# Experimental data taken from patent US7619005B2, “Methods for treating cognitive impairment in humans with Multiple Sclerosis” (Cognition Pharmaceuticals LLC, priority 2000, dated 2009).
# “And” between values parts separate entries of the source, which are not always exact repeats. Equal values may be shown once. This continues a long series; more values of the same kind are listed elsewhere.
# System: rats
# Experiment: Inhibitory Avoidance task, normal rats
# Conditions: Control rats, each animal (Table 7)
substance,measurement,setting,value
(−)-1-methyl-2-phenylethylamine sulfate (2:1) [C105],latency to enter the dark side of the apparatus,0.5 mg/kg,577.0 seconds and 28.0 seconds (2×) and 93.0 seconds and 162.0 seconds
same,latency to enter the dark side of the apparatus,1.0 mg/kg,317.0 seconds and 26.0 seconds (2×) and 48.0 seconds and 56.0 seconds
same,latency to enter the dark side of the apparatus,2.0 mg/kg,581.0 s and 21.0 s and 25.0 s and 41.0 s and 84.0 s
same,latency to enter the dark side of the apparatus,4.0 mg/kg,208.0 seconds and 21.0 seconds and 36.0 seconds and 64.0 seconds (2×)
